Test results taken from paper PMC4046148.
Results are given in words; binding and its absence hold for the method and conditions named. In cells and extracts the contact can be indirect. Some entries that bind do so weakly or less than the wild type.

Sequences of proteins named here, by UniProt entry; tags and fusion partners are left off.
UniProt Q00987: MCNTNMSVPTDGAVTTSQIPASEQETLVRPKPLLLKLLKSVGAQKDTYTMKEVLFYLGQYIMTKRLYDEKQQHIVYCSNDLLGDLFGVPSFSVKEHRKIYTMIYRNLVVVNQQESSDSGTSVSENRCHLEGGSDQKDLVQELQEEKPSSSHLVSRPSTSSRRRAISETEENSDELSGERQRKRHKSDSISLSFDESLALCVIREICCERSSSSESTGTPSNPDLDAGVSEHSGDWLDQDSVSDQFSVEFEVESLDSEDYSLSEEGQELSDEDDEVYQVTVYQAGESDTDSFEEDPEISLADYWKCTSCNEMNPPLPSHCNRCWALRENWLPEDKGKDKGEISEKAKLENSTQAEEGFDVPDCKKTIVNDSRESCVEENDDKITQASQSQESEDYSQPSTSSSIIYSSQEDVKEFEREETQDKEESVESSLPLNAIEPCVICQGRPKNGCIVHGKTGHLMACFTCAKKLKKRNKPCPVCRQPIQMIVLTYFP

Molecular target: MDM2 (human (endogenous in HepG2/As and SMMC7721/As)) (UniProt Q00987)
Assay: co-IP; endogenous proteins of arsenic trioxide resistant HCC cells, untreated or treated with 2 μM arsenic trioxide for 24 h; immunoprecipitated with an anti-MDM2 antibody, immunoblotted with anti-MDM2 and anti-p73 antibodies

B1: p73 (protein, UniProt O15350 1-636)
chain: MAQSTATSPDGGTTFEHLWSSLEPDSTYFDLPQSSRGNNEVVGGTDSSMDVFHLEGMTTSVMAQFNLLSSTMDQMSSRAASASPYTPEHAASVPTHSPYAQPSSTFDTMSPAPVIPSNTDYPGPHHFEVTFQQSSTAKSATWTYSPLLKKLYCQIAKTCPIQIKVSTPPPPGTAIRAMPVYKKAEHVTDVVKRCPNHELGRDFNEGQSAPASHLIRVEGNNLSQYVDDPVTGRQSVVVPYEPPQVGTEFTTILYNFMCNSSCVGGMNRRPILIIITLEMRDGQVLGRRSFEGRICACPGRDRKADEDHYREQQALNESSAKNGAASKRAFKQSPPAVPALGAGVKKRRHGDEDTYYLQVRGRENFEILMKLKESLELMELVPQPLVDSYRQQQQLLQRPSHLQPPSYGPVLSPMNKVHGGMNKLPSVNQLVGQPPPHSSAATPNLGPVGPGMLNNHGHAVPANGEMSSSHSAQSMVSGSHCTPPPPYHADPSLVSFLTGLGCPNCIEYFTSQGLQSIYHLQNLTIEDLGALKIPEQYRMTIWRGLQDLKQGHDYSTAQQLLRSSNAATISIGGSGELQRQRVMEAVHFRVRHTITIPNRGGPGGGPDEWADFGFDLPDCKARKQPIKEEFTEAEIH
  binding: binds
